{
  "source": "paper PMC6325638",
  "about": "(Clinics in liver disease, 2017)",
  "system": "zebrafish larvae",
  "conditions": "in vivo",
  "note": "Like-named read-outs stand apart in the source and are kept apart here.",
  "data": [
    {"smiles": "CCCCc1oc2ccccc2c1C(=O)c1cc(I)c(OCCN(CC)CC)c(I)c1", "note": "[Amiodarone]", "values": [
      {"measurement": "Visual toxicity (bent tail, distended peritoneum, edema, pericardial congestion)", "setting": "0.66 μM", "result": "1/4"},
      {"measurement": "Visual toxicity (bent tail, distended peritoneum, edema, pericardial congestion)", "setting": "2 μM", "result": "0/4"},
      {"measurement": "Visual toxicity (bent tail, distended peritoneum, edema, pericardial congestion)", "setting": "6.6 μM", "result": "3/4"},
      {"measurement": "Visual toxicity (bent tail, distended peritoneum, edema, pericardial congestion)", "setting": "20 μM", "result": "2/4"}
    ]}
  ]
}
